Laboratory results from patent US20110243993A1, “Method for diagnosing and creating immunogenic tolerance in contact allergy and other epithelial immunotoxicological ailments” (priority 2010, published 2011).

Test system: human skin excerpts
Test: Labelling of human skin excerpts by caged haptens (bromobimanes)
Conditions: fluorescence after uncaging

Compound | skin layers labeled by the caged hapten
Cc1c(CBr)n2c(CBr)c(C)c(=O)n2c1=O [dBBr, dibromobimane] | in addition to the stratum corneum; cells in the basal layer are labeled
Cc1c(C)n2c(CBr)c(C)c(=O)n2c1=O [mBBr] | in addition to the stratum corneum; cells in the basal layer are labeled
